Reference: the supplement of paper PMC10849652
The other results are listed elsewhere or left out.

Chains of the proteins cited; added tags and fusions are not shown. Lines headed by an entry give the natural chain unless they say otherwise; changes in a name come on top.
UniProt Q14152, whole entry, looked up: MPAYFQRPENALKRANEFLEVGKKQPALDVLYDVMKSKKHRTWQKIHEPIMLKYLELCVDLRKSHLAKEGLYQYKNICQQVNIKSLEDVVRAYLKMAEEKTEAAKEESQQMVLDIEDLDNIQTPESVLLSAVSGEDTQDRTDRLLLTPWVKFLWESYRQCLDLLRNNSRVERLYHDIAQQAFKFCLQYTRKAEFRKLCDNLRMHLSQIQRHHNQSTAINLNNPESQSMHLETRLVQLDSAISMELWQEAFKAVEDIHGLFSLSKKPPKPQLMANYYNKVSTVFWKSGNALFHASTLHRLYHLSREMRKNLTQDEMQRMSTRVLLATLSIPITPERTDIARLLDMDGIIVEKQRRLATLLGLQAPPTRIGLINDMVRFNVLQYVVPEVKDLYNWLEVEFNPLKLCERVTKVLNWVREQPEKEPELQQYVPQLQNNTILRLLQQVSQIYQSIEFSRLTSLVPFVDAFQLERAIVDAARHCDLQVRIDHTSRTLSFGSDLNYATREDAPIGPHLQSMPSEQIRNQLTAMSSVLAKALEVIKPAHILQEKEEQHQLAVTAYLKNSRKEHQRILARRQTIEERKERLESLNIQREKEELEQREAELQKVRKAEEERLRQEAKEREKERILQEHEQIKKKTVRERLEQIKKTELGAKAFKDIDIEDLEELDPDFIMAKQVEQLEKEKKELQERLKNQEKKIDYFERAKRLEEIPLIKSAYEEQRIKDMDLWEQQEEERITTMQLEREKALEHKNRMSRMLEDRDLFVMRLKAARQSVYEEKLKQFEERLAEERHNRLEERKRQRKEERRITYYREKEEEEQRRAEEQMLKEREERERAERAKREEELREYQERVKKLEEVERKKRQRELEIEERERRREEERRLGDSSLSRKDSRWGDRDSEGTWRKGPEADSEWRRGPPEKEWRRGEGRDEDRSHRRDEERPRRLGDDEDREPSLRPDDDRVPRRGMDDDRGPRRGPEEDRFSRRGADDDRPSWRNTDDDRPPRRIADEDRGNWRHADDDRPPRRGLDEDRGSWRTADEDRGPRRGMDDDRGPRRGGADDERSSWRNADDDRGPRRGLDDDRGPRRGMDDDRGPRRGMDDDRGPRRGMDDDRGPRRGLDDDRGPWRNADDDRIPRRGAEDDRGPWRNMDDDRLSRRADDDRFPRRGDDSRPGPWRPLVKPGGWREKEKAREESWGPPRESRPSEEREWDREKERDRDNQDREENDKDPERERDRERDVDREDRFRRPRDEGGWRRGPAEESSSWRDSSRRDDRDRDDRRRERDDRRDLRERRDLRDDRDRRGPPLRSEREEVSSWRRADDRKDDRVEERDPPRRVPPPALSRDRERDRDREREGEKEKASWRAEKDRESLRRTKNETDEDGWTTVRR
UniProt Q9P2K8: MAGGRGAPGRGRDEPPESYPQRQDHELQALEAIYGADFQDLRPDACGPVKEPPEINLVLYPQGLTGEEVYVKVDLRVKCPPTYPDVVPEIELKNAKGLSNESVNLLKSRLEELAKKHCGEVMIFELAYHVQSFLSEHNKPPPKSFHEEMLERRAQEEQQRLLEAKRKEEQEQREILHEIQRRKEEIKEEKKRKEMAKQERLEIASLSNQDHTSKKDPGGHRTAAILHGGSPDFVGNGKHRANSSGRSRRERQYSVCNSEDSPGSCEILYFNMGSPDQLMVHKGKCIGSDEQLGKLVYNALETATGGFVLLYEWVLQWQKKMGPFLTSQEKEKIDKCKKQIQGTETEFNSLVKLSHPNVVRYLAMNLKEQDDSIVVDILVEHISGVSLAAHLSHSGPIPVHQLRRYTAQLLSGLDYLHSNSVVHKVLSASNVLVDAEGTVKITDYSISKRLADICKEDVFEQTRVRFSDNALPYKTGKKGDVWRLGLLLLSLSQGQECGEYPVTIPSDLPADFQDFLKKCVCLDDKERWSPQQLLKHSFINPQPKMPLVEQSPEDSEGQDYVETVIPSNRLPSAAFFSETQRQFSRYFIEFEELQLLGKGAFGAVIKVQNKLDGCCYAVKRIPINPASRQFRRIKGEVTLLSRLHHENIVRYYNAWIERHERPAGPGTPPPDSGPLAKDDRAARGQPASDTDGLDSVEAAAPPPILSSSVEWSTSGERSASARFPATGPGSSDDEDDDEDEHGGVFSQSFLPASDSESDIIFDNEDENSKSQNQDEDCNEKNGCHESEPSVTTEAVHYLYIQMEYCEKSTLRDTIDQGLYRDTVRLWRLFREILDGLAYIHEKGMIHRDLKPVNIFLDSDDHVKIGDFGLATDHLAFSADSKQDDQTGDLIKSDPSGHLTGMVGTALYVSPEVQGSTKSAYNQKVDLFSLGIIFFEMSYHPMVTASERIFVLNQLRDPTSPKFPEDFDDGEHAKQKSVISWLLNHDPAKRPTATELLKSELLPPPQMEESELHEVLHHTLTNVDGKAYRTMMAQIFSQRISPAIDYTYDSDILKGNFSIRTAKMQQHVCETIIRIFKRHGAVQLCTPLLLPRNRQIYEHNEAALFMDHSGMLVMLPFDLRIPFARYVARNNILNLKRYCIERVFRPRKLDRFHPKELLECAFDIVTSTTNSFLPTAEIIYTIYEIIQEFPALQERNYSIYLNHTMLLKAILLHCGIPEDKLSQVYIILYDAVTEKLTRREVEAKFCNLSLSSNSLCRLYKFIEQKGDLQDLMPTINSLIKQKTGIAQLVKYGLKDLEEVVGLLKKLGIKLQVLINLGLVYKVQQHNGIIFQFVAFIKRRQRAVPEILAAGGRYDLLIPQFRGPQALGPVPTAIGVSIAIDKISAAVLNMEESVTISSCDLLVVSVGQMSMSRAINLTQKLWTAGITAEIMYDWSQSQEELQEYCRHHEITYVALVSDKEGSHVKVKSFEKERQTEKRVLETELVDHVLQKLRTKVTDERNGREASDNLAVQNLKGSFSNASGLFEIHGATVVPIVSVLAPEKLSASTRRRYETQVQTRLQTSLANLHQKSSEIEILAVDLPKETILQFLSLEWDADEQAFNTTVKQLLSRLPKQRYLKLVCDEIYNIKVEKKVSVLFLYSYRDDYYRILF
UniProt P55884, whole entry, looked up: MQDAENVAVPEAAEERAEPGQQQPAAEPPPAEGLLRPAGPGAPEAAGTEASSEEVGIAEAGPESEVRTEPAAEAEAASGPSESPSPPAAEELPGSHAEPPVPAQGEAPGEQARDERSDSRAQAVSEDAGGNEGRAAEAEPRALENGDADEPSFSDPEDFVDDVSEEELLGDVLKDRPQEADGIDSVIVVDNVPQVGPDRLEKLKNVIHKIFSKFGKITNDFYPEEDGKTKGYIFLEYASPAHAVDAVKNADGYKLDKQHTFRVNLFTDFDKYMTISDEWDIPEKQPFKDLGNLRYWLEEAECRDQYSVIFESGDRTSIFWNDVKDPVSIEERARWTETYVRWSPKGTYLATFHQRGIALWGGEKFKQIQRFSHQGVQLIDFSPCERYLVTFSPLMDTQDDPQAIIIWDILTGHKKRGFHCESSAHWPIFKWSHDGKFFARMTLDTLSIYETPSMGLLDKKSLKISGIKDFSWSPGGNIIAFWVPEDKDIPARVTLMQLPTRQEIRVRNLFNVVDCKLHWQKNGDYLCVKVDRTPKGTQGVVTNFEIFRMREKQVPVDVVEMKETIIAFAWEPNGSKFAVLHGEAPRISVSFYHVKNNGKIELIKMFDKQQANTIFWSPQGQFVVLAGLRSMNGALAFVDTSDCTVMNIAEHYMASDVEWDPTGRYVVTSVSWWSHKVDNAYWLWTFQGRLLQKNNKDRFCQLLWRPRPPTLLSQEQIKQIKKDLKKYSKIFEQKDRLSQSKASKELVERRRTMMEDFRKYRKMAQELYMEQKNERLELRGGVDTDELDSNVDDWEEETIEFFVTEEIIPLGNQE
UniProt P63241: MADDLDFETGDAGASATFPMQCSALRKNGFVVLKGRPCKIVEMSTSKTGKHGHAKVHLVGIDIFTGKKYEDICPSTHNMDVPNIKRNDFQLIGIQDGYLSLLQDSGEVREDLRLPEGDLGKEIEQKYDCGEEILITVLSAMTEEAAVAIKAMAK
UniProt O14638, whole entry, looked up: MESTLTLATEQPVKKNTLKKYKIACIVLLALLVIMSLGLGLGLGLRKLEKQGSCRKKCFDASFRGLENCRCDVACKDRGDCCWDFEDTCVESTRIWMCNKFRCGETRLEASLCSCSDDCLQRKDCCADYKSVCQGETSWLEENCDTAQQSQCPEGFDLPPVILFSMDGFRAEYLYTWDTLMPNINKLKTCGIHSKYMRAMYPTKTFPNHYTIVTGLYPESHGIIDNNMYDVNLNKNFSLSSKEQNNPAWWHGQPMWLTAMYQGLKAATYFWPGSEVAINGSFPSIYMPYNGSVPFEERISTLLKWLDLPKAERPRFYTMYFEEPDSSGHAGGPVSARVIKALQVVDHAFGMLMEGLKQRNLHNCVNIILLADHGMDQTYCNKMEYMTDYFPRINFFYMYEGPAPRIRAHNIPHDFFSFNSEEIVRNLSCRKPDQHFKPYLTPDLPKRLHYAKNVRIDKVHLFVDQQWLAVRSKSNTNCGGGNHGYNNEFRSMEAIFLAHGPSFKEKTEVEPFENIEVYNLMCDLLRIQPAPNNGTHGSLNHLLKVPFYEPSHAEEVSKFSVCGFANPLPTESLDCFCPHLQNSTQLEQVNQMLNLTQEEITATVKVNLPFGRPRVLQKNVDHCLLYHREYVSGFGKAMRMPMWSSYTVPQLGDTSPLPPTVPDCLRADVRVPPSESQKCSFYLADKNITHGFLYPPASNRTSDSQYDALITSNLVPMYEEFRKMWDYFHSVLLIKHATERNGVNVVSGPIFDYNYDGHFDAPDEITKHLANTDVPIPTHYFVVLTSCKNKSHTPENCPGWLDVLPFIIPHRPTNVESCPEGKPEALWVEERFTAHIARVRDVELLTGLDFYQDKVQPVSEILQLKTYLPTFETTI
UniProt Q8N9N8: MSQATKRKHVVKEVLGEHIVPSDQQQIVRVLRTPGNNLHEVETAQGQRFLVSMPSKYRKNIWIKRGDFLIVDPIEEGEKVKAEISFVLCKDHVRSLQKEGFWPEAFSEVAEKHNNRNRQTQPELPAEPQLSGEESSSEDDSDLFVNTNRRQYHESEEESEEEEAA
UniProt P06733, whole entry, looked up: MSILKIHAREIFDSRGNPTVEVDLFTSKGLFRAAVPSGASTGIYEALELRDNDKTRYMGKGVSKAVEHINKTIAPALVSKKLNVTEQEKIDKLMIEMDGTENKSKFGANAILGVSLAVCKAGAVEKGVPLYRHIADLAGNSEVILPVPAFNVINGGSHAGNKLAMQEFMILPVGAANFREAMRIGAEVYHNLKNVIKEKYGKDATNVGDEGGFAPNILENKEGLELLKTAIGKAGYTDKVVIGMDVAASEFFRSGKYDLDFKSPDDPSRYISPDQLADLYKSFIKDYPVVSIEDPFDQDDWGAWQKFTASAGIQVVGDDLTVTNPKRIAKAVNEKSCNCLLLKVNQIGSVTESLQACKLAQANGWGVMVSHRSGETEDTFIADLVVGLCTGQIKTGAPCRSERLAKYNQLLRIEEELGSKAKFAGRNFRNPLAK
UniProt P41567, whole entry, looked up: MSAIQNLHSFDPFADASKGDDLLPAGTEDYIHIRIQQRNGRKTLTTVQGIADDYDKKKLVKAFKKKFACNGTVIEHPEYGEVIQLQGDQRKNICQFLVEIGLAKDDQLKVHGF
UniProt O43402: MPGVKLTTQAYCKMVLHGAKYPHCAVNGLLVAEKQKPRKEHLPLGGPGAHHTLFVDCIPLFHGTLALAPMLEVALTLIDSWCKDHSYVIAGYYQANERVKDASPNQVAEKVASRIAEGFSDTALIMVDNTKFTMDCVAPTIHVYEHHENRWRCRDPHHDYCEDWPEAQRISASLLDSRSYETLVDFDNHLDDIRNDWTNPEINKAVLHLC
UniProt Q14240, whole entry, looked up: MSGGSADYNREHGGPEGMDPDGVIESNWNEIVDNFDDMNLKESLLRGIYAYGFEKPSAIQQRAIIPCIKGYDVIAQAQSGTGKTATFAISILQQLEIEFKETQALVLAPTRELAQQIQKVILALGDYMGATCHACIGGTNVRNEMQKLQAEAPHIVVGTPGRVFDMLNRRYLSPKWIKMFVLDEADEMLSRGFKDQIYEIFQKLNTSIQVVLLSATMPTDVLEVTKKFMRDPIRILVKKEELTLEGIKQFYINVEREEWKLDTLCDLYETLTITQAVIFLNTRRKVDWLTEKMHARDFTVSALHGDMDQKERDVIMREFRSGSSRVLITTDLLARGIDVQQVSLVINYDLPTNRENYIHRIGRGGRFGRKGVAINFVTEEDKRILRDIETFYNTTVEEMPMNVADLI
UniProt P49770: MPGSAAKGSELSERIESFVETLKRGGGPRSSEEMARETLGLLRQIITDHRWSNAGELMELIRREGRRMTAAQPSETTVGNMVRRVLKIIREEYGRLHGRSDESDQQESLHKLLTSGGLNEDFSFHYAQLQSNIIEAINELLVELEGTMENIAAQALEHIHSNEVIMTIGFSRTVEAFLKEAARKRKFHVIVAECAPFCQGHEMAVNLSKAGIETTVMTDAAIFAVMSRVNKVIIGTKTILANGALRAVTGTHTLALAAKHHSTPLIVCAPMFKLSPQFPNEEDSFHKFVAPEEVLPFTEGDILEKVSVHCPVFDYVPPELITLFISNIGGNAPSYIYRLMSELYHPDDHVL

Experiments:
Test in all cases: log2 fold change, soluble protein after heating vs DMSO (PISA); higher = thermal stabilisation; K562 cells, 10 uM, 30 min; active = over 0.2 and 3.5 SD of the protein, either way, in both replicates (recomputed)
[1] = compound: CC1=C(C=C(C=C1)NC(=O)C2=CC(=CC=C2)C(C)(C)C#N)NC3=CC4=C(C=C3)N=CN(C4=O)C
Procedure, shortened: (§1)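 For each measurement, 10 μM compound was applied for 30 min to K562 cells at 2×10^6 cells/mL. Aliquots were heated for 3 min across 48°C-58°C, pooled, and extracted in PBS with 0.5% NP-40 at 4°C; the supernatant after 21,000xg for 90 min was soluble protein. This was quantified by TMTpro 16plex LC-MS/MS with channel sums equalised, and thermal stability was reported relative to control samples from duplicates, on a log2 fold-change scale.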

[2] = compound: CC1=C(C=C(C=C1)NC(=O)C2=CC(=CC=C2)N(C)C)NC(=O)C3=CC=C(C=C3)O
Procedure, shortened: as §1

[3] = compound: CC1=CC=C(C=C1)SC2=C3C=C(SC3=CN=C2)C(=O)N
Procedure, shortened: as §1

[4] = compound: CC1=NC(=CC=C1)C2=C(N=C(N2)C(C)(C)C)C3=CC4=NC=CN=C4C=C3
Procedure, shortened: as §1

[5] = compound: CCCCN(Cc1ccc(C(=O)NO)cc1)C(=O)Nc1ccccc1 [Nexturastat A]
Procedure, shortened: as §1

[6] = compound: CCCS(=O)(=O)Nc1ccc(F)c(C(=O)c2c[nH]c3ncc(-c4ccc(Cl)cc4)cc23)c1F [vemurafenib]
Procedure, shortened: as §1

[7] = compound: CCCS(=O)(=O)Nc1ccc(F)c(C(=O)c2c[nH]c3ncc(Cl)cc23)c1F
Procedure, shortened: as §1

[8] = compound: CCCc1cc(C)[nH]c(=O)c1CNC(=O)c1cc(-c2ccnc(N3CCN(C)CC3)c2)cc2c1cnn2C(C)C
Procedure, shortened: as §1

[9] = compound: CCN(CC)Cc1ccc2cc(COC(=O)Nc3ccc(C(=O)NO)cc3)ccc2c1 [givinostat]
Procedure, shortened: as §1

[10] = compound: CCN(CCCOc1ccc2c(Nc3cc(CC(=O)Nc4cccc(F)c4)[nH]n3)ncnc2c1)CCOP(=O)(O)O [barasertib]
Procedure, shortened: as §1

[11] = compound: CC[C@@H]1C(=O)N(C)c2cnc(Nc3ccc(C(=O)NC4CCN(C)CC4)cc3OC)nc2N1C1CCCC1
Procedure, shortened: as §1

[12] = compound: CC[C@@H]1C(=O)N(C)c2cnc(Nc3ccc(C(=O)N[C@H]4CC[C@H](N5CCN(CC6CC6)CC5)CC4)cc3OC)nc2N1C(C)C [volasertib]
Procedure, shortened: as §1

[13] = compound: CC[C@H](C)N1C=C(C2=C(C=C(C=C21)C3=CN=C(C=C3)N4CCNCC4)C(=O)NCC5=C(C=C(NC5=O)C)C)C
Procedure, shortened: as §1

[14] = compound: CC[C@H](C)[C@@H](C(=O)N[C@@H]([C@@H](C)O)C(=O)N[C@@H](CC(C)C)C(=O)[C@]1(CO1)C)NC(=O)[C@H]([C@@H](C)CC)N(C)C(=O)C [epoxomicin]
Procedure, shortened: as §1

[15] = compound: CCn1c(C(=O)N(C2CC2)C2CC2)cc2c3c(ncn3C)c(Nc3cc(C)n(C)n3)nc21
Procedure, shortened: as §1

[16] = compound: CCn1cc(-c2ccnc3[nH]c(-c4cccc(CN(C)C)c4)cc23)c(-c2ccc(NC(=O)N(C)C)cc2)n1
Procedure, shortened: as §1

[17] = compound: CN(C)CC(=O)Nc1ccc2[nH]c(=O)c3ccccc3c2c1
Procedure, shortened: as §1

[18] = compound: CN(CCOC1=CC=C(C=C1)C[C@H]2C(=O)NC(=O)S2)C3=CC=CC=N3 (racemic) [rosiglitazone]
Procedure, shortened: as §1

[19] = compound: CN1C2=C(C3=C1C(=O)N(N=C3)CC4=CC(=CC=C4)N)SC(=C2)S(=O)C
Procedure, shortened: as §1

[20] = compound: CN1CCC(CNc2ccc3ncc(-c4cccc(OC(F)(F)F)c4)n3n2)CC1
Procedure, shortened: as §1

Measured: log2 fold change

EIF3A (UniProt Q14152)
inactive: [1] 0.013 | [2] -0.046 | [3] 0.039 | [4] -0.012 | [5] 0.166 | [6] 0.043 | [7] 0.076 | [8] 0.069 | [9] 0.074 | [10] 0.067 | [11] -0.09 | [12] -0.448 | [13] 0.136 | [14] 0.043 | [15] -0.101 | [16] 0.024 | [17] 0.063 | [18] 0.051 | [19] 0.104 | [20] -0.159

EIF2AK4 (UniProt Q9P2K8)
inactive: [1] 0.051 | [2] -0.054 | [3] 0.054 | [4] -0.053 | [5] 0.063 | [6] -0.002 | [7] -0.012 | [8] -0.195 | [9] 0.307 | [10] 0.03 | [11] 0.099 | [12] -0.157 | [13] 0.03 | [14] -0.049 | [15] 0.028 | [16] -0.038 | [17] 0.138 | [18] 0.051 | [19] 0.109 | [20] -0.154

EIF3B isoform 2 (UniProt P55884)
inactive: [1] -0.025 | [2] -0.036 | [3] 0.013 | [4] -0.036 | [5] 0.176 | [6] 0.012 | [7] 0.048 | [8] 0.055 | [9] 0.069 | [10] 0.045 | [11] -0.016 | [12] -0.29 | [13] 0.072 | [14] -0.034 | [15] -0.061 | [16] 0.053 | [17] 0.015 | [18] 0.036 | [19] 0.15 | [20] -0.009

EIF3M (UniProt Q7L2H7)
inactive: [1] 0.056 | [2] -0.062 | [3] 0.029 | [4] 0.043 | [5] 0.057 | [6] 0.077 | [7] 0.07 | [8] 0.035 | [9] 0.026 | [10] 0.015 | [11] -0.065 | [12] -0.241 | [13] 0.058 | [14] 0.027 | [15] -0.021 | [16] -0.015 | [17] 0.03 | [18] 0.034 | [19] 0.027 | [20] -0.072

EIF5 (UniProt P55010)
inactive: [1] 0.027 | [2] -0.035 | [3] 0.012 | [4] 0.025 | [5] -0.033 | [6] 0.012 | [7] 0.039 | [8] -0.039 | [9] -0.06 | [10] 0.025 | [11] -0.066 | [12] -0.163 | [13] 0.029 | [14] 0.012 | [15] -0.02 | [16] -0.022 | [17] 0.031 | [18] 0.03 | [19] -0.101 | [20] -0.01

EIF5A isoform 2 (UniProt P63241)
inactive: [1] 0.063 | [2] -0.105 | [3] 0.054 | [4] 0.062 | [5] -0.082 | [6] 0.06 | [7] 0.098 | [8] 0.046 | [9] 0.03 | [10] 0.036 | [11] -0.128 | [12] -0.177 | [13] 0.117 | [14] 0.041 | [15] -0.017 | [16] -0.055 | [17] 0.049 | [18] 0.039 | [19] -0.088 | [20] -0.14

ENPP3 (UniProt O14638)
inactive: [1] 0.034 | [2] -0.044 | [3] 0.105 | [4] 0.068 | [5] 0 | [6] -0.082 | [7] 0.062 | [8] 0.021 | [9] 0.008 | [10] 0.019 | [11] -0.191 | [12] 0.09 | [13] 0.09 | [14] 0.056 | [15] 0.038 | [16] -0.018 | [17] -0.104 | [18] -0.117 | [19] 0.107 | [20] -0.01

EIF1AD (UniProt Q8N9N8)
inactive: [1] -0.021 | [2] -0.018 | [3] 0.029 | [4] 0.022 | [5] -0.171 | [6] -0.004 | [7] 0.029 | [8] -0.022 | [9] -0.024 | [10] -0.003 | [11] -0.002 | [12] -0.003 | [13] -0.03 | [14] 0.055 | [15] 0.011 | [16] -0.049 | [17] -0.01 | [18] 0.005 | [19] -0.019 | [20] -0.048

EHHADH (UniProt Q08426)
inactive: [1] -0.044 | [2] -0.028 | [3] -0.007 | [4] -0.008 | [5] 0.005 | [6] -0.019 | [7] 0.02 | [8] -0.008 | [9] -0.002 | [10] 0.028 | [11] 0.042 | [12] -0.012 | [13] 0.057 | [14] -0.047 | [15] -0.091 | [16] -0.062 | [17] -0.007 | [18] -0.014 | [19] -0.047 | [20] -0.049

ENO1 (UniProt P06733)
inactive: [1] -0.009 | [2] -0.004 | [3] 0.01 | [4] 0.022 | [5] -0.084 | [6] -0.013 | [7] -0.029 | [8] -0.028 | [9] -0.044 | [10] 0.019 | [11] -0.017 | [12] 0.081 | [13] -0.051 | [14] -0.011 | [15] 0.007 | [16] 0.029 | [17] -0.009 | [18] 0.021 | [19] -0.119 | [20] -0.03

Reprinted at random: two records from the list, in no set order.
EIF3A (UniProt Q14152)
inactive: [1] 0.013 | [2] -0.046 | [3] 0.039 | [4] -0.012 | [5] 0.166 | [6] 0.043 | [7] 0.076 | [8] 0.069 | [9] 0.074 | [10] 0.067 | [11] -0.09 | [12] -0.448 | [13] 0.136 | [14] 0.043 | [15] -0.101 | [16] 0.024 | [17] 0.063 | [18] 0.051 | [19] 0.104 | [20] -0.159

EIF1AD (UniProt Q8N9N8)
inactive: [1] -0.021 | [2] -0.018 | [3] 0.029 | [4] 0.022 | [5] -0.171 | [6] -0.004 | [7] 0.029 | [8] -0.022 | [9] -0.024 | [10] -0.003 | [11] -0.002 | [12] -0.003 | [13] -0.03 | [14] 0.055 | [15] 0.011 | [16] -0.049 | [17] -0.01 | [18] 0.005 | [19] -0.019 | [20] -0.048

The list continues:

EIF1 (UniProt P41567)
inactive: [1] -0.005 | [2] 0.048 | [3] -0.019 | [4] -0.005 | [5] 0.015 | [6] -0.031 | [7] -0.055 | [8] -0.053 | [9] -0.042 | [10] -0.047 | [11] 0.034 | [12] 0.174 | [13] -0.033 | [14] 0.052 | [15] 0.046 | [16] 0.045 | [17] -0.043 | [18] 0 | [19] -0.025 | [20] -0.011

EMC8 (UniProt O43402)
inactive: [1] 0.015 | [2] 0 | [3] -0.031 | [4] 0.012 | [5] -0.013 | [6] 0.022 | [7] 0.007 | [8] 0.013 | [9] -0.127 | [10] 0.002 | [11] -0.027 | [12] 0.039 | [13] 0.01 | [14] 0.05 | [15] -0.004 | [16] 0.006 | [17] -0.012 | [18] 0.021 | [19] -0.061 | [20] -0.012

EPB41 (UniProt P11171)
inactive: [1] 0.019 | [2] -0.026 | [3] -0.007 | [4] 0.003 | [5] -0.033 | [6] 0.01 | [7] 0.003 | [8] 0.043 | [9] -0.027 | [10] 0.01 | [11] -0.043 | [12] -0.082 | [13] 0.035 | [14] 0.005 | [15] 0.031 | [16] 0 | [17] -0.033 | [18] 0.017 | [19] -0.022 | [20] -0.074

EIF2B3 (UniProt Q9NR50)
inactive: [1] 0.016 | [2] -0.009 | [3] -0.004 | [4] 0.012 | [5] 0.12 | [6] 0.008 | [7] 0.032 | [8] 0.038 | [9] 0.007 | [10] -0.008 | [11] -0.03 | [12] -0.109 | [13] 0.014 | [14] 0.024 | [15] -0.021 | [16] 0.04 | [17] -0.014 | [18] 0.027 | [19] 0.006 | [20] 0.027

EIF4A2 isoform 2 (UniProt Q14240)
inactive: [1] -0.006 | [2] -0.031 | [3] 0.036 | [4] 0.044 | [5] -0.166 | [6] 0.019 | [7] 0.039 | [8] 0.024 | [9] 0.008 | [10] 0.015 | [11] -0.045 | [12] -0.109 | [13] 0.062 | [14] -0.019 | [15] 0.003 | [16] 0 | [17] 0.017 | [18] 0.05 | [19] -0.056 | [20] -0.095

EIF2B2 (UniProt P49770)
inactive: [1] 0.016 | [2] 0.021 | [3] 0.001 | [4] 0 | [5] -0.023 | [6] 0.01 | [7] 0.063 | [8] -0.012 | [9] 0.007 | [10] -0.003 | [11] -0.007 | [12] 0.08 | [13] -0.015 | [14] 0.033 | [15] 0.013 | [16] -0.078 | [17] 0.013 | [18] -0.004 | [19] -0.036 | [20] 0.142
